Consider three substances from PMC7866234.

Amino acid sequences for entries named in this document (tags omitted).
UniProt Q96GY3: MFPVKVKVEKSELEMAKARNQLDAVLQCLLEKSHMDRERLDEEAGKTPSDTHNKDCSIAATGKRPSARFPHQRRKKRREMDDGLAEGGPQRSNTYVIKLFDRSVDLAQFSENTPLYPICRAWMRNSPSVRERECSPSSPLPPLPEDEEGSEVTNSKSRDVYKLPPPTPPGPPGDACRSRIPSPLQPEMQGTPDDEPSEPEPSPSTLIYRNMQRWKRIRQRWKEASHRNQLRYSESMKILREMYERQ
UniProt P06788: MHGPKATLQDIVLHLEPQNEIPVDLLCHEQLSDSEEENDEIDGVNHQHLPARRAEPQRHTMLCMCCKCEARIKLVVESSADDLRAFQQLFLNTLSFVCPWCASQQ
UniProt P03129: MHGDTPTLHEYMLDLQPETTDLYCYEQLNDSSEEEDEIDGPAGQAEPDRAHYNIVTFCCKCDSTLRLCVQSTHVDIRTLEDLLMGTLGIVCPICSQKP
UniProt Q5TKA1: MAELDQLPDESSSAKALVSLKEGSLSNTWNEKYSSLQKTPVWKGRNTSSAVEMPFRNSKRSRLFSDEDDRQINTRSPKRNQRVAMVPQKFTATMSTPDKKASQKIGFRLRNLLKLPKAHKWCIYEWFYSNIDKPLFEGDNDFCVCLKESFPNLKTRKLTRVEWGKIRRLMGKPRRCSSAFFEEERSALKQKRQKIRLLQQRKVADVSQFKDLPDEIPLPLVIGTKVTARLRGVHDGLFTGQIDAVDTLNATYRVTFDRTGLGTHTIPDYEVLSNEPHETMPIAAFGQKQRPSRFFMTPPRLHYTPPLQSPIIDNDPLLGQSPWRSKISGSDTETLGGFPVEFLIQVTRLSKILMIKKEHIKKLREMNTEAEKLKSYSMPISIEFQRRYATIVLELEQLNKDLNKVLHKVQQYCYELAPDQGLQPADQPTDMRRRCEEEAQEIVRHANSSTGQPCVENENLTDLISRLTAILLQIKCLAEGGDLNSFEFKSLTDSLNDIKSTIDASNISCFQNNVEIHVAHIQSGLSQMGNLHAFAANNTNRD
UniProt P10244: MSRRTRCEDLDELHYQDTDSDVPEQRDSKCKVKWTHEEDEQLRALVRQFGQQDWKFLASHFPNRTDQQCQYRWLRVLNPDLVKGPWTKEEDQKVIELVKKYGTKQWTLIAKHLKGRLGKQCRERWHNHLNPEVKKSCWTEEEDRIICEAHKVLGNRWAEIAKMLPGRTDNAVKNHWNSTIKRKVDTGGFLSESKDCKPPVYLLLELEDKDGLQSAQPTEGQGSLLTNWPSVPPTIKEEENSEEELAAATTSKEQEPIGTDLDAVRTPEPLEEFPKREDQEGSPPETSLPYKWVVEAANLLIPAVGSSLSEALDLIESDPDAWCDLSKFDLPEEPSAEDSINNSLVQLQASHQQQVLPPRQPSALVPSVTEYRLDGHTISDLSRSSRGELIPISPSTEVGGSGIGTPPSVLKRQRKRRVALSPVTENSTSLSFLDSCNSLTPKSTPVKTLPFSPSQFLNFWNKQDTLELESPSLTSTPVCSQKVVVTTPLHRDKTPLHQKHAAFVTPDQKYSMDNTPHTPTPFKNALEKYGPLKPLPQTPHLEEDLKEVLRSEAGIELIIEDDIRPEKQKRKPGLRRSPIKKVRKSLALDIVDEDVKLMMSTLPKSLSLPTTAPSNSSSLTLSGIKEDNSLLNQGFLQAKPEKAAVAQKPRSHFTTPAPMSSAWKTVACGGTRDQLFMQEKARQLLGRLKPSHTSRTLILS
UniProt Q08999: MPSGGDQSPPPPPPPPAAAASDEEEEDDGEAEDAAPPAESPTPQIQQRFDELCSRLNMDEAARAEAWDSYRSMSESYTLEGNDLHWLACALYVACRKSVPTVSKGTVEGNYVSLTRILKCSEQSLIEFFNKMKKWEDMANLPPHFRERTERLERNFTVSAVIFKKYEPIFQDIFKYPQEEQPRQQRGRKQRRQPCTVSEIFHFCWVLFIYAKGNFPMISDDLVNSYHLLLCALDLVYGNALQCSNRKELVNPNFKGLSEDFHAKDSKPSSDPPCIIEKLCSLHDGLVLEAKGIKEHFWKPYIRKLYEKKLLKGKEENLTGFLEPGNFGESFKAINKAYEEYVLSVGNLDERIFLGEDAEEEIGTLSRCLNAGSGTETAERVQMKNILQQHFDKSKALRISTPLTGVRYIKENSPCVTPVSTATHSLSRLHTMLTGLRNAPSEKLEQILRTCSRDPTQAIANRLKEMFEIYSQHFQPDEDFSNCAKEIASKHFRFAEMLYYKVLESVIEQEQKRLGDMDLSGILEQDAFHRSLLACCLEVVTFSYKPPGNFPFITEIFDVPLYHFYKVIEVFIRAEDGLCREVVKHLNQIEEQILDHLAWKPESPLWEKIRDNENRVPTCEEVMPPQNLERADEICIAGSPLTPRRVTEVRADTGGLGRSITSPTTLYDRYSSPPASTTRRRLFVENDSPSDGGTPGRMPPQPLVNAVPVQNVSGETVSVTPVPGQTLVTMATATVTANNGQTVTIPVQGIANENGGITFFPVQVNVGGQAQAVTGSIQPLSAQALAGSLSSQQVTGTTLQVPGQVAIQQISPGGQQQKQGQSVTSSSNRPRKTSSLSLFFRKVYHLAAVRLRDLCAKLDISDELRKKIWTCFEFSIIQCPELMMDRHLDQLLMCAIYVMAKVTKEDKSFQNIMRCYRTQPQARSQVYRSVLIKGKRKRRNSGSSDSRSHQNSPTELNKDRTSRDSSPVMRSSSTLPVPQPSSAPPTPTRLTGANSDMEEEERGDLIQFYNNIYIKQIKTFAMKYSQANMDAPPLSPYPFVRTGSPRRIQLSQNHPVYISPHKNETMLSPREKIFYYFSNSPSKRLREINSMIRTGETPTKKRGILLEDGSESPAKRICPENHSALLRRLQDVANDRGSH

These are yes or no findings as the source states them, for the method shown. In cells and extracts the contact can be indirect. Some binding calls cover weakened binding; strength is not graded here.

The target of assay [1] is LIN37 (human (endogenous in N/Tert-1, HeLa, SiHa)) (UniProt Q96GY3). Put plainly: co-IP; LIN37 precipitated from HeLa and SiHa cell lines (control, LIN52 WT or LIN52-S20C expressing); EBC buffer extracts, capturing antibody and protein A Sepharose overnight at 4 °C.
The target is the same in assay [2]. Description: co-IP; LIN37 precipitated from N/Tert-1 and N/Tert-1+HPV16 cell lines (also lines expressing LIN52 WT or S20C); EBC buffer extracts, capturing antibody and protein A Sepharose overnight at 4 °C.
The next assay concerns the target HPV18 E7 (HPV18) (UniProt P06788). Put plainly: co-IP.
A further assay concerns the target HPV16 E7 (HPV16) (UniProt P03129). Put plainly: co-IP.

As to LIN9 (from UniProt Q5TKA1 1-542), the binding result in assay [1] is recorded as “binds”.

For the substance B-Myb (from UniProt P10244 1-700), in assay [2], the binding entry is “binds”.

Take p130 (from UniProt Q08999 1-1139): the binding result (in assay [2]; in the assay with HPV18 E7 (HPV18); with HPV16 E7 (HPV16); in assay [1]) was “binds” each time.
